Assay results published in publication PMC7819943, “Rice protein-binding microarrays: a tool to detect cis-acting elements near promoter regions in rice”.
The other results are listed elsewhere or left out.

Sequences of proteins named here, by UniProt entry; tags and fusion partners are left off.
UniProt Q0JBA9, entry or part of it: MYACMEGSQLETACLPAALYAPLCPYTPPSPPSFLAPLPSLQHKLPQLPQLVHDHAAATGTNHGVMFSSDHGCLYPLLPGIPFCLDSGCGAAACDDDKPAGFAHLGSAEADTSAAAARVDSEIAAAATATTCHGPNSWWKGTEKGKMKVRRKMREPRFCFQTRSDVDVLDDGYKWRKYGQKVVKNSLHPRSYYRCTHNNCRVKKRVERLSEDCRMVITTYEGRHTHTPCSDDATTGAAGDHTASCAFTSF

What follows are sequences tested against OsWRKY34 (Oryza sativa, UniProt Q0JBA9 1-250) (assay: protein-binding microarray (RPBM); PBS, 2% BSA, 51.3 ng/ul salmon testes DNA, 50 uM zinc acetate, 200 nM TF, 25 C, 1 h; high values mean tight binding). Conditions: protein: recombinant; tags: N-terminal polyhistidine and DsRed monomer fusion (pET32a); label: CyDye5-dUTP incorporated in the synthesized complementary strand; 3' TTTTT single-stranded linker to array surface; dsDNA, one strand shown.
In short: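 The binding signal is fluorescence intensity per array feature (arbitrary units). Readings came from an Axon 4000B scanner after a washed, 2% BSA-blocked, double-stranded custom Agilent array had been incubated for 1 h at 25 °C with 200 nM protein and 50 µM zinc acetate. The protein was a Ni–NTA-purified transcription factor fused N-terminally to polyhistidine and DsRed, expressed in E. coli BL21-CodonPlus.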
For “GTACATGTACGGACACATGCCACCTTCGCGCGCCACCTACCGGAGTCACCTAGTGCAG”, the binding signal was 8460 fluorescence intensity (a.u.). In the case of “TCTCCTAAAGATTCATGTTACGTATCTCTTACTTCAACAGCGGAGTCACCTAGTGCAG”, the binding signal is reported as 8710 fluorescence intensity (a.u.). In the case of “CTCTGTAATATATCATTATGACTGCTAATTCGTCTATTTTCGGAGTCACCTAGTGCAG”, the binding signal is reported as 8080 fluorescence intensity (a.u.). “GCCGCCACCCGCCACTGTGATCACCGCGAGCCGCCGCCAGCGGAGTCACCTAGTGCAG” was tested, and the binding signal was 9810 fluorescence intensity (a.u.). In the case of “CACATATTTTTTATTTGAATTCGGTCCTAATGTAATTACTCGGAGTCACCTAGTGCAG”, the binding signal is reported as 10900 fluorescence intensity (a.u.). “TCATTGAGTTCTTGTTTTTAGTTGGTAATTCTTTCTTTATCGGAGTCACCTAGTGCAG” was tested, and the binding signal was 11000 fluorescence intensity (a.u.). “CCACCTGTGACCTGTGTATGTGCACACTCCGTCAGACCAGCGGAGTCACCTAGTGCAG” was tested, and the binding signal was 8810 fluorescence intensity (a.u.). With “AGGAGGTAGGTTGGTAGGTTTCTATTGCTTCTTCTCAGCTCGGAGTCACCTAGTGCAG” the binding signal was 9510 fluorescence intensity (a.u.). With “CTGCCACTTATCCACACACAACTTCATTGCAACAAATCACCGGAGTCACCTAGTGCAG” the binding signal was 8360 fluorescence intensity (a.u.). “CGCCGTTTCTCTCGTCGTTGACCGGAGAAATCGTCGTCTCCGGAGTCACCTAGTGCAG” was tested, and the binding signal was 9980 fluorescence intensity (a.u.). In the case of “CCCCGTCCTGACTACCTGCTGCTCGCCTCCCATTCTTCTCCGGAGTCACCTAGTGCAG”, the binding signal is reported as 11200 fluorescence intensity (a.u.). With “GATCTTACCCCTCAATTATGTCTCTTACGCATCAGAACTGCGGAGTCACCTAGTGCAG” the binding signal was 8980 fluorescence intensity (a.u.). For “TGATAATTTTGGCCATTCCTAATCTGCAAACAGATCATCTCGGAGTCACCTAGTGCAG”, the binding signal was 8060 fluorescence intensity (a.u.). In the case of “TCTCGGCCATCGCGTACTCATATATAAATCGTACGTACTCCGGAGTCACCTAGTGCAG”, the binding signal is reported as 8490 fluorescence intensity (a.u.). “AGTATATCTCCTTCTTCTGTTCCTGTGATGCACCTCTGATCGGAGTCACCTAGTGCAG” was tested, and the binding signal was 8650 fluorescence intensity (a.u.). “ACCACGTTATCTCTCGTTCTCTCTCCTTTCTTCTCTCGTCCGGAGTCACCTAGTGCAG” was tested, and the binding signal was 10800 fluorescence intensity (a.u.). For “CCGAACCCCACCCCACCCCACCCGCCGCGCCACGCCATCTCGGAGTCACCTAGTGCAG”, the binding signal was 9910 fluorescence intensity (a.u.). With “ATGGTATCAGCACACAGTTAAACTATCATGTCACTTGTACCGGAGTCACCTAGTGCAG” the binding signal was 9030 fluorescence intensity (a.u.). In the case of “TTCCGGCAAATTCTTGCTTGCGTGAGGCCCGATCGAGCATCGGAGTCACCTAGTGCAG”, the binding signal is reported as 8460 fluorescence intensity (a.u.). For “CTTCCCGCCTTTGCCGTCCTCGCGCCGGCACGCGCGCGCGCGGAGTCACCTAGTGCAG”, the binding signal was 12700 fluorescence intensity (a.u.). For “ATATATTCAGCTTCACCAACTAGGCCTTTTACTGAGTTCGCGGAGTCACCTAGTGCAG”, the binding signal was 8130 fluorescence intensity (a.u.). For “ACGTTAATGGTTTTTTTTTATGGGAACAAAGGTTATGTTACGGAGTCACCTAGTGCAG”, the binding signal was 8940 fluorescence intensity (a.u.). With “TGCCACGTTCACCACATAGATATCTTCCAAACTTGCTACACGGAGTCACCTAGTGCAG” the binding signal was 8090 fluorescence intensity (a.u.). With “GTCAGTCGTCGCCTCATCGGGACAGCCTTTTTACCGTTTCCGGAGTCACCTAGTGCAG” the binding signal was 9720 fluorescence intensity (a.u.). In the case of “CTTTTTTTTCATACACCCTTTTTACACTTTGCTTAGTATTCGGAGTCACCTAGTGCAG”, the binding signal is reported as 10700 fluorescence intensity (a.u.). “TCTCTCTCCGTCTCTTGCGGTCTCGCCGTCGTCAGTCGCCCGGAGTCACCTAGTGCAG” was tested, and the binding signal was 8200 fluorescence intensity (a.u.). For “TTCTATATACCATAGTCGATCATCCCTGACTTTTTTTTTACGGAGTCACCTAGTGCAG”, the binding signal was 8540 fluorescence intensity (a.u.). For “CGCCTGGGGTAGTGTTTTTTTCTCTCTTTTTGTTCGTTATCGGAGTCACCTAGTGCAG”, the binding signal was 9880 fluorescence intensity (a.u.). In the case of “GTGTCTTTGCTCCTTGAGTTCTGCACTAGCTAGCTAGTGTCGGAGTCACCTAGTGCAG”, the binding signal is reported as 8350 fluorescence intensity (a.u.). “GTTACTGACAGTGGGACCAGCAGCTACCTCCCTTGTTTACCGGAGTCACCTAGTGCAG” was tested, and the binding signal was 9170 fluorescence intensity (a.u.). In the case of “CGCTCAATCAATCTGTACATGCTACCATGCTAGTTTCACCCGGAGTCACCTAGTGCAG”, the binding signal is reported as 12300 fluorescence intensity (a.u.). With “AAAAAACCAAAATTTTCCTTTTCTCTTTGTTTTTTTAATACGGAGTCACCTAGTGCAG” the binding signal was 8720 fluorescence intensity (a.u.). With “CAGAGCGCTAATGTTATTGTCCATCGGCCTCTTGTTGCAGCGGAGTCACCTAGTGCAG” the binding signal was 8860 fluorescence intensity (a.u.). In the case of “ACTTCAGTCACCCGAAATTTAGCGTATACTATTTTTTTTACGGAGTCACCTAGTGCAG”, the binding signal is reported as 11800 fluorescence intensity (a.u.). For “TCCACCCCGGCCTCCACATCCGCTCCACCCGCCGCCTCCCCGGAGTCACCTAGTGCAG”, the binding signal was 8570 fluorescence intensity (a.u.). “TGCCGGCGATTGGACTCTTCTACTCTCTCCCTTTCCTTTGCGGAGTCACCTAGTGCAG” was tested, and the binding signal was 10800 fluorescence intensity (a.u.). For “CCCGTCAACGCCACCTCACCGTTGACGTTGCCACTCTCTTCGGAGTCACCTAGTGCAG”, the binding signal was 16800 fluorescence intensity (a.u.). In the case of “CACATTTTCATGGCTCATCACAACAGTTACAATTTCCCTTCGGAGTCACCTAGTGCAG”, the binding signal is reported as 10800 fluorescence intensity (a.u.). In the case of “TCTACCGCATCTTCTGCTGCTTCATCCGTCCTCCTAAATCCGGAGTCACCTAGTGCAG”, the binding signal is reported as 14400 fluorescence intensity (a.u.). For “TCTCTCTCTCTTTTCTCTCTAGCTATTCAATGCTCCTTTTCGGAGTCACCTAGTGCAG”, the binding signal was 8050 fluorescence intensity (a.u.). For “AACTCCACAACCATCTCTATTCCTTCATTTTTCCTAATCCCGGAGTCACCTAGTGCAG”, the binding signal was 8810 fluorescence intensity (a.u.). For “TCGCCGAGGGTGGGCTTCAAGGTGGACGCGGAGAAAGCGACGGAGTCACCTAGTGCAG”, the binding signal was 8490 fluorescence intensity (a.u.).
